# Experimental data published in patent US20150275192.
# Numbering of substitutions follows the chain as printed. Where a protein sequence is shown, tags need not be part of it.
# Assays:
# [1] = target: T1, TSK V93Q,D141A,E143A,Y409S,A485L,E664K (Thermococcus gorgonarius) (UniProt P56689); test: activity assay; conditions: outperforms D4S; less active than D4SK; protein in a lysate after overexpression; label: 5' FITC on primer
# T1 sequence: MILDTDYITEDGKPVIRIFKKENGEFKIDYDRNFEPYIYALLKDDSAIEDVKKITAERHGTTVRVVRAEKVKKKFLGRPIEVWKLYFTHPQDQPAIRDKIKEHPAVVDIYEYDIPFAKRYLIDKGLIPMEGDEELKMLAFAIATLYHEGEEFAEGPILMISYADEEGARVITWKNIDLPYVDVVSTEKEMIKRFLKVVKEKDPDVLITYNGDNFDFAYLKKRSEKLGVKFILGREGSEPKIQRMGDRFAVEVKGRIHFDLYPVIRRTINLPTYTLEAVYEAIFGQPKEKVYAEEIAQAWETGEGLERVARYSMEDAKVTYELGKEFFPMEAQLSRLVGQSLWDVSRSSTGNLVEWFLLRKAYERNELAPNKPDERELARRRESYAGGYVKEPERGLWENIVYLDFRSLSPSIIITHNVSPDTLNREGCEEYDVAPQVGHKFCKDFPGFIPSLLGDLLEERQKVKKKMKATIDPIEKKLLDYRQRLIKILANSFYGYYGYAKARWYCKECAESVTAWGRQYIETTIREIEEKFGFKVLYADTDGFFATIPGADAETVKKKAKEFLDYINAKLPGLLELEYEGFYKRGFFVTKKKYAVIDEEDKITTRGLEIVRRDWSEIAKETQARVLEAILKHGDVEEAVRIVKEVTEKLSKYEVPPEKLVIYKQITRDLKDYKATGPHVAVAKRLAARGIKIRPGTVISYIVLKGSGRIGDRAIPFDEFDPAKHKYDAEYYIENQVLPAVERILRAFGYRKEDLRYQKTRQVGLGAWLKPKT
# [2] = target: T2, PolD4K (D4YK) V93Q,D141A,E143A,L403P,A485L,P657T,E658Q,K659H,Y663H,E664K,D669A,K671N,T676I (Thermococcus gorgonarius) (UniProt P56689); test: activity assay; conditions: ANA synthesis; full-length product at 18.8 nM polymerase; 1x ThermoPol; purified recombinant protein; label: 5' FITC on primer
# T2 sequence: T1 sequence with L403P, S409Y, P657T, E658Q, K659H, Y663H, D669A, K671N, T676I
sequence,measurement,setting,value
CCCCTTATTAGCGTTTGCCA / CTCACGATGCTGGACCAGATAAGCACTTAGCCACGTAGTGCTGTTCGGTAATCGATCTGGCAAACGCTAATAAGGGG [fd primer / TempN template],activity on this sequence,[1],active
same,activity on this sequence,[2],active
